PubChem BioAssay AID1259308 – NCATS – 2017
Test: 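Candidate targets for better recombinant protein yield in mammalian cells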 (primary screen). Cells: human HEK293 embryonic kidney cells stably expressing firefly luciferase (HEK-CMV-Luc2-Hygro). Knock-down reagent: single siRNA against human genes, 0.8 pmol siRNA per well. Time to read-out: 72 h. Measured: 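Luciferase light (ONE-Glo) measured on one replicate plate set and viability (CellTiter-Glo) on the other, scaled to a negative control siRNA, with robust z-scores and luciferase per cell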. Reading the numbers: total luciferase, z-score and total luciferase, % of control: higher = more reporter protein produced; luciferase per cell, z-score: higher = more reporter output per viable cell; viable cells, % of control: higher = more viable cells. Active means: 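An siRNA counts as active if its total luciferase robust z-score exceeds 3; genes with two or more such siRNAs out of three were retested with fresh siRNAs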. Meaning of the calls: active = raised luciferase; inactive = no rise.
Shown is a random part of about 59,000 deposited reagents. In the full data, about 1,510 (2.6%) were called active. 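Calls use total luciferase alone and ignore viability, so some active siRNAs may act by altering cell number.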 Unmarked entries are inactive. The numbers tell different reagents against one gene apart.

target | reagent | total luciferase, z-score | total luciferase, % of control | luciferase per cell, z-score | viable cells, % of control
KLHL40 | 1 | -0.7 | 68 | -0.805 | 93.9
KLHL40 | 2 | 3.12 (active) | 144 | 2.72 | 78.5
KLHL40 | 3 | 1.14 | 105 | 1.03 | 89.1
FYB1 | 1 | -0.282 | 76.3 | 0.319 | 78.4
FYB1 | 2 | -1.87 | 44.7 | -1.67 | 77.5
FYB1 | 3 | -1.17 | 58.7 | -0.669 | 78.2
ANKS3 | 1 | -1.63 | 49.4 | -0.427 | 61.8
ANKS3 | 2 | -1.82 | 45.7 | -2.39 | 95.9
ANKS3 | 3 | -0.782 | 66.3 | -1.27 | 104
TCEAL3 | 1 | 0.0894 | 83.7 | 0.143 | 90
TCEAL3 | 2 | -1.08 | 60.4 | -0.769 | 82.7
TCEAL3 | 3 | -0.0991 | 79.9 | -0.177 | 93.6
NPDC1 | 1 | -0.372 | 74.5 | 0.342 | 76.1
NPDC1 | 2 | -1.57 | 50.7 | -1.51 | 84.3
NPDC1 | 3 | -0.777 | 66.4 | 0.00725 | 74.1
N4BP2L1 | 1 | 3.21 (active) | 146 | 2.64 | 81.3
N4BP2L1 | 2 | -2.04 | 41.3 | -2.39 | 86.6
N4BP2L1 | 3 | 0.996 | 102 | 1.26 | 81.5

Next part, starting with the last 2 of the part before.
target | reagent | total luciferase, z-score | total luciferase, % of control | luciferase per cell, z-score | viable cells, % of control
N4BP2L1 | 2 | -2.04 | 41.3 | -2.39 | 86.6
N4BP2L1 | 3 | 0.996 | 102 | 1.26 | 81.5
KRR1 | 1 | 3.35 (active) | 148 | 3.49 | 66.2
KRR1 | 2 | -0.626 | 69.4 | -1.16 | 105
KRR1 | 3 | 0.224 | 86.3 | -0.191 | 101
HCN1 | 1 | -1.78 | 46.6 | -1.59 | 79
HCN1 | 2 | -0.811 | 65.8 | -0.607 | 86.2
HCN1 | 3 | -0.315 | 75.6 | -0.788 | 104
FERMT1 | 1 | 8.06 (active) | 242 | 4.76 | 77.4
FERMT1 | 2 | -0.606 | 69.8 | -0.143 | 81
FERMT1 | 3 | 0.304 | 87.9 | -0.348 | 108
ABHD13 | 1 | -1.62 | 49.7 | -1.74 | 87.8
ABHD13 | 2 | -0.337 | 75.2 | -0.392 | 93.1
ABHD13 | 3 | -1.04 | 61.2 | -1.38 | 98.4
TMEM127 | 1 | -1.05 | 61.1 | 0.477 | 60.2
TMEM127 | 2 | 0.975 | 101 | 0.187 | 108
TMEM127 | 3 | -0.709 | 67.8 | -0.702 | 91.1
DCAF17 | 1 | 1.22 | 106 | 1.65 | 76.8
DCAF17 | 2 | -0.792 | 66.1 | -1.04 | 97.3
DCAF17 | 3 | -0.814 | 65.7 | 0.25 | 68.7
NASP | 1 | 3.05 (active) | 142 | 3.14 | 69.7
NASP | 2 | -1.63 | 49.5 | -1.24 | 76.7
NASP | 3 | 1.39 | 109 | 0.957 | 95.1
